We go through 4 sequences from article PMC6747400, “Mismatch Recognition by Saccharomyces cerevisiae Msh2-Msh6: Role of Structure and Dynamics”.

The exact form of at least one protein or probe is not confirmed.

This data set relates to Msh2 + Msh6. Nature of the data set: EMSA. The note with it: apparent Kd; EMSA: 20 mM Tris-Cl pH 7.5, 100 mM NaCl, 5 mM MgCl2, 2% ficoll, 4 C, 10 nM DNA; recombinant protein; letters put together from the description.

Regarding “TATGCAGTCACTATGAATCAACTACTTAGATGGT (double strand) [G:C unlabeled]”, the Kd was determined as 0.066 µM.

“TATGCAGTCACTATGAATCAACTACTTAGATGGT / ACCATCTAAGTAGTTGATTAATAGTGACTGCATA [G:A unlabeled]”: the Kd worked out at 0.045 µM.

Regarding “TATGCAGTCACTATGAATCAACTACTTAGATGGT / ACCATCTAAGTAGTTGATTCTAGTGACTGCATA [+T unlabeled]”, the Kd was 0.033 µM.

For “TATGCAGTCACTATGAATCAACTACTTAGATGGT / ACCATCTAAGTAGTTGATTTATAGTGACTGCATA [G:T unlabeled]”, the Kd was 0.035 µM.
